## Library screening results

Protein sequences, listed by entry. Tags and fused reporters are not part of them.
UniProt E9BF75, entry or part of it: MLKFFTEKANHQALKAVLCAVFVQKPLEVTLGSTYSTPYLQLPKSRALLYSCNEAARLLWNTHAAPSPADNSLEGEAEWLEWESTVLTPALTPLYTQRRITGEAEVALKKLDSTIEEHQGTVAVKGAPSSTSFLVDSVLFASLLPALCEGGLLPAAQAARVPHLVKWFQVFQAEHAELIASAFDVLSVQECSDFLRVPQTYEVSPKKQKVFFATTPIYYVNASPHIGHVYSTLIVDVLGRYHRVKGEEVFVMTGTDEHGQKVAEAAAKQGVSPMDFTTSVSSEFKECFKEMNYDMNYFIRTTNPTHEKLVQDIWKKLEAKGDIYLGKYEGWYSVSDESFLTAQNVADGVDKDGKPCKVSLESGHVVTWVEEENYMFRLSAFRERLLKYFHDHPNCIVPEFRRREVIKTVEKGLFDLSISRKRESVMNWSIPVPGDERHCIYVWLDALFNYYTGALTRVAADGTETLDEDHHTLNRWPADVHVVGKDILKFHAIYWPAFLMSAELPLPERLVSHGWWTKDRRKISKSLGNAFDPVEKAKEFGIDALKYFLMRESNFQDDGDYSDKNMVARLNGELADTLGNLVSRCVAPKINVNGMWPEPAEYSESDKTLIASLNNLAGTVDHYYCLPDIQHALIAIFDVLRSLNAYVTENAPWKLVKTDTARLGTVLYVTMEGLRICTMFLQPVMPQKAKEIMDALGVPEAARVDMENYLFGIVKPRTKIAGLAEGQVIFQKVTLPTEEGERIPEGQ

Source: ChEMBL document CHEMBL3988442, “University of Dundee, Small-Polar-MMV Screening Library” (2021).

Mtb heat-shock: 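Assay on Mycobacterium tuberculosis, filed only as a heat shock assay from Cornell; the read-out is not stated. The concentration is filed as 10 mM, unlikely as a test dose, so the dose is not known. The record gives no direction; compounds that gave an IC50 in retests scored well above the rest, so higher reads as stronger inhibition. Of about 69,000 compounds tested this way, about 930 (1.4%) reached 50% or more in at least one test.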
LdMetRS: 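Primary screen of methionyl-tRNA synthetase; the read-out is not stated. Target: Methionyl-tRNA synthetase (putative), Leishmania donovani (UniProt E9BF75). The test concentration is not given. Values are per cent inhibition. About 68,000 compounds were tested under these conditions; 0.035% (about 24) showed 50% or more at least once.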
Mtb growth Cornell: 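Whole-cell assay for inhibitors of Mycobacterium tuberculosis growth, labelled Cornell in the record; the read-out is not stated. The concentration is filed as 10 mM, unlikely as a test dose, so the dose is not known. The record gives no direction; compounds strong in two other growth screens of this library score well above the rest, so higher reads as stronger inhibition. About 53,000 compounds were tested under these conditions; 1.7% (about 900) showed 50% or more at least once.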

Results are percentages, as filed. How 0% and 100% were set is not recorded. Most values in the screen are low, and negative values occur. This is an unselected part of the compounds tested. A dash means the value is not listed here; it may have been measured.

SMILES,Mtb heat-shock,LdMetRS,Mtb growth Cornell
c1cc2c(cc1Cn1cc(C3CCOC3)nn1)CCCO2 (centres unmarked),21.51,8.629,-
CNC(=O)C1CC(=O)N(c2cccc(F)c2)C1 (centres unmarked),10.09,10.67,-
CCn1cc2c(n1)C(COCC1CC1)CN(C(=O)c1cnoc1C)C2 (centres unmarked),1.858,7.609,26.18
C=C(C)CN1CCC(NC(=O)Nc2ccc(F)c(C(=O)NC)c2)CC1,-9.913,13.71,-
O=C(O)C(F)(F)F.O=C(O)C(F)(F)F.O=C(O)C(F)(F)F.c1ccc(CN2CCc3ncnc(N4CCCC4)c3CC2)nc1,-43.81,-,10.42
O=C(c1cccc(CN2CCCC2)c1)N1CCCC(n2cncn2)C1 (centres unmarked),-8.308,16.34,-16.73
CC(=O)NCC(=O)N1Cc2nccn2CC(COc2cccnc2)C1 (centres unmarked),-,-428.8,-
O=C(CCc1ccccc1)N1CCCCC1C1OCCO1 (centres unmarked),4.591,10,-7.64
CCN1CC(CN(C)Cc2nc(-c3ccoc3)oc2C)CC1=O (centres unmarked),-2.049,22.12,20.4
CCN1C(=O)CCC12CCN(S(=O)(=O)c1ccc(C#N)cc1)CC2,-17.36,3.333,-
Cc1noc(C)c1CN(C)Cn1nccc1-c1cccnc1,-17.6,0.8287,-
COc1cc(C(=O)N(CCC#N)Cc2ccccn2)cc(OC)c1C,-1.208,5.854,-4.048
CN(C)CC1CN(Cc2ccsc2)Cc2nccn2C1 (centres unmarked),-,18.45,-
O=C(NC[C@H]1OC[C@@H](NC2CCC(F)(F)CC2)[C@@H]1O)Nc1ccccc1,-5.031,9.153,17.01
Cc1ccc(OCc2occc2C(=O)O)cc1,5.656,3.081,-
O=C1CSC(c2ccc(Cl)cc2Cl)c2c(n(C3CCOCC3)[nH]c2=O)N1 (centres unmarked),10.02,10,1.066
COCC(O)CN(C)c1ccnc2cc(Br)ccc12 (centres unmarked),-0.9699,15.92,6.843
Cc1cc2nc(C(C)C)cc(NC(C)c3nncn3C)n2n1 (centres unmarked),6.767,12.18,-
CC(C1CCN(Cc2cnc(-c3cccs3)nc2)CC1)N(C)C (centres unmarked),-16.11,12.59,-6.865
[H][C@@]12CN(c3ncccn3)C[C@H](C(=O)NCCOC)[C@]1([H])CCO2,-11.94,-,-39.91
NC(=O)NCC1CCCCN1C(=O)c1ccc(Cl)s1 (centres unmarked),-2.59,15.79,-
Cc1ccc(C2(CN3CCN(Cc4cn(C)nc4C)CC3)CC2)cc1,-,8.438,-
Cc1ccc(CNC(=O)C2CCCCN2C(=O)OC(C)(C)C)cn1 (centres unmarked),-25.47,13.86,-27.07
COc1ccc(Cl)cc1C(=O)N(C)Cc1cc(C)on1,11.9,7.311,-76.03
CC1N(CC2CC2)C(=O)COC12CCN(C(=O)c1cscn1)CC2 (centres unmarked),3.169,13.04,28.09
Cc1nc(CN2C(=O)C[C@H]3[C@H]2CCN3C2CCOC2)cs1 (some centres unmarked),-,17.79,-
COc1ccc(Nc2cc(C)nc(C)n2)cc1N1CCCC1=O,-2.474,2.902,3.882
O=C(O)C(F)(F)F.c1cnc(N2CCC3(CCCN(Cc4ccncc4)C3)CC2)nc1,-2.214,-,-25.41
CCc1ccc(C(=O)NC2CCCN(c3ccn(C)n3)C2=O)o1 (centres unmarked),-108.3,10.57,-
CC(NCC(=O)Nc1ccc(N2CCCCCC2)cc1)c1cccs1 (centres unmarked),-26.92,6.811,8.695
O=C(Cc1cccc(F)c1)NCCNc1ncccn1,7.314,12.57,-28.44
CSCC(=O)N1CCN(CC(O)C(C)(C)C)CC1 (centres unmarked),1.423,8.157,-
Cc1cc(NC(=O)C2CN(Cc3ccccc3)CCO2)ccn1 (centres unmarked),-29.53,2.653,-36.23
COc1ccc(OC)c(-n2cnnc2C)c1,-23.12,-,-
COc1ccccc1OCc1cc(C(=O)N2CCC(C(C)O)CC2)n[nH]1 (centres unmarked),0.8568,16.1,-32.37
Cc1cc(CNc2ccnn2C)ccc1-n1cncn1,0.4194,10,-2.346
CCNC(=O)CCC(=O)N1CCC(Oc2cc(C)ccc2C)CC1,-4.304,13.82,0.8916
CCOC(=O)c1coc(N2CCC(N3CCC(O)CC3)CC2)n1,5.428,13.64,0.3137
Cc1c(Cl)cccc1S(=O)(=O)N1CCC(S(=O)(=O)c2nncn2C)CC1,12.65,12.36,23.7
O=C(c1ccc2c(c1)CCCC2)N1CCCC(n2cncn2)C1 (centres unmarked),-10.3,9.218,-0.6388
Cc1nnc(SCC(=O)Nc2csc3nc(=O)c(C)nn23)s1,-1.325,0.2584,-16.68
Cn1ncc2c1C(COCC1CC1)CN(Cc1ccco1)C2 (centres unmarked),1.233,18.73,30.85
[H][C@]12CCCCN1CCC[C@@]2(O)CN(CC)Cc1nc(COC)no1,-3.906,-,4.286
CCn1nc(C)c(C(=O)N2C[C@@H](CN(C)CCOC)[C@@H](CO)C2)c1C,15.61,10.79,7.688
CC(C)Oc1ncnc2c1CCN(Cc1ccco1)CC2.O=C(O)C(F)(F)F,-23.01,-,21.95

The first 5 entries again:

* c1cc2c(cc1Cn1cc(C3CCOC3)nn1)CCCO2 (centres unmarked) | Mtb heat-shock: 21.51%; LdMetRS: 8.629%
* CNC(=O)C1CC(=O)N(c2cccc(F)c2)C1 (centres unmarked) | Mtb heat-shock: 10.09%; LdMetRS: 10.67%
* CCn1cc2c(n1)C(COCC1CC1)CN(C(=O)c1cnoc1C)C2 (centres unmarked) | Mtb heat-shock: 1.858%; LdMetRS: 7.609%; Mtb growth Cornell: 26.18%
* C=C(C)CN1CCC(NC(=O)Nc2ccc(F)c(C(=O)NC)c2)CC1 | Mtb heat-shock: -9.913%; LdMetRS: 13.71%
* O=C(O)C(F)(F)F.O=C(O)C(F)(F)F.O=C(O)C(F)(F)F.c1ccc(CN2CCc3ncnc(N4CCCC4)c3CC2)nc1 | Mtb heat-shock: -43.81%; Mtb growth Cornell: 10.42%